# Reference: PMC5998130
# Sequences of proteins named here, by UniProt entry; tags and fusion partners are left off.
# UniProt Q92793: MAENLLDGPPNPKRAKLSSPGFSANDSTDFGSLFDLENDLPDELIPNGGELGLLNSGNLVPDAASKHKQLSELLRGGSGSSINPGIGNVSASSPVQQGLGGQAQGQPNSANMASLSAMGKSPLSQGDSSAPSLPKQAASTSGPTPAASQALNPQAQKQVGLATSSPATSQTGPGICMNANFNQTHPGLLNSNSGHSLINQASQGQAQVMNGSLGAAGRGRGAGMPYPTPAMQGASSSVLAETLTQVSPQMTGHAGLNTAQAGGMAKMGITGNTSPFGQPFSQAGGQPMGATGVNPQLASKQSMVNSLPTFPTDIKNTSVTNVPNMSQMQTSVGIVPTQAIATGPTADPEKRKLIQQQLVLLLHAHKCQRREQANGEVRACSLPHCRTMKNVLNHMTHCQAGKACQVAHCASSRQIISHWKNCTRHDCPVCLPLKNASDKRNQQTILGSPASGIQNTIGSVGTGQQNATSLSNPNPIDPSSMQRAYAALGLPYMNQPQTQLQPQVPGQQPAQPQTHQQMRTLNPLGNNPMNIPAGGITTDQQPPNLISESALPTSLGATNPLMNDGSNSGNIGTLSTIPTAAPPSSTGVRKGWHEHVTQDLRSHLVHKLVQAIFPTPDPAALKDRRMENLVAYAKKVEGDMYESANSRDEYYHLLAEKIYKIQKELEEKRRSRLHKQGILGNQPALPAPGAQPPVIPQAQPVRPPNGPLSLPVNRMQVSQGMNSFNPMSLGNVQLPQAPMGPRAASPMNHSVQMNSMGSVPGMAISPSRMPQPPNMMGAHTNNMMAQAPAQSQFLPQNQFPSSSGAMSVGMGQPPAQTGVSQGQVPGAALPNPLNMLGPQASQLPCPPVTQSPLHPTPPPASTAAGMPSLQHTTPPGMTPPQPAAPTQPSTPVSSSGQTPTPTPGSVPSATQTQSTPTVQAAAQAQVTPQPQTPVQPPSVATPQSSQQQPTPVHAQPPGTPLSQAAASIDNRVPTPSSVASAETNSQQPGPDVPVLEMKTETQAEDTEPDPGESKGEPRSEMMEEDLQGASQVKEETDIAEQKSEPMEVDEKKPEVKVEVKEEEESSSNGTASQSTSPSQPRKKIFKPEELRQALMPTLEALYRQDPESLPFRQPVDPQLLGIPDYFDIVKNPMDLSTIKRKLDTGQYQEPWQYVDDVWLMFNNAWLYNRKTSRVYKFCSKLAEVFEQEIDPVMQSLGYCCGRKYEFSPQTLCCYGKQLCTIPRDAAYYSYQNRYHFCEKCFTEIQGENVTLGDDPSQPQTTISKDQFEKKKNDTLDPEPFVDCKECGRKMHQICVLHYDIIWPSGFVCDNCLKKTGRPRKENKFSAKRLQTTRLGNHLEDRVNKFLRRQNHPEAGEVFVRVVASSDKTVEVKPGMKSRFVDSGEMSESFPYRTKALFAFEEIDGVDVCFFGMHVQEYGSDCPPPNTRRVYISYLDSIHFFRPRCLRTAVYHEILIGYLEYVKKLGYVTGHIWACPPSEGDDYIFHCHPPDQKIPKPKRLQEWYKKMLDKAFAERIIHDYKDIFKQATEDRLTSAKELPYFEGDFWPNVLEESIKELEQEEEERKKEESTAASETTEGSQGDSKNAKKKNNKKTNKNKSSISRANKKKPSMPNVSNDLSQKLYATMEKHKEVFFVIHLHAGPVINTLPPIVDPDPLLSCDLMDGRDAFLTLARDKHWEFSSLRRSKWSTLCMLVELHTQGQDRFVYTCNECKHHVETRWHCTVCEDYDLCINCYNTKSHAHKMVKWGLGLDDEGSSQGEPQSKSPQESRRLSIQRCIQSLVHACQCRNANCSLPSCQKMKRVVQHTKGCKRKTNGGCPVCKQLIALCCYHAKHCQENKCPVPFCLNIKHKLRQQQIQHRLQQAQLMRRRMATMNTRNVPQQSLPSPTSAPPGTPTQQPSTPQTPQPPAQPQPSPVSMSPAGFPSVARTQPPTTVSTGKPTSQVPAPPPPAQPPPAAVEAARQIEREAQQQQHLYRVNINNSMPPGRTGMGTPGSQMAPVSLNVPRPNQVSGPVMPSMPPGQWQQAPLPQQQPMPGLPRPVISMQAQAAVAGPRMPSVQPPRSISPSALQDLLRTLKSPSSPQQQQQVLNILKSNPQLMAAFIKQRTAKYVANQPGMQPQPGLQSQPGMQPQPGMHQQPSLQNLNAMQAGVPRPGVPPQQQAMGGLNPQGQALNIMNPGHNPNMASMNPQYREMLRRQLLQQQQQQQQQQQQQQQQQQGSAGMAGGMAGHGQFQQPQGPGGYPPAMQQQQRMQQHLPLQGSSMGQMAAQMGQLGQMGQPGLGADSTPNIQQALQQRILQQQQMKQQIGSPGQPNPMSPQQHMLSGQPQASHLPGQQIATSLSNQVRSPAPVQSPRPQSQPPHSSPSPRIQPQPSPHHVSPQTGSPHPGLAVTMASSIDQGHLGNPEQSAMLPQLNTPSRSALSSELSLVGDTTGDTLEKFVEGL
# UniProt Q4ZG55: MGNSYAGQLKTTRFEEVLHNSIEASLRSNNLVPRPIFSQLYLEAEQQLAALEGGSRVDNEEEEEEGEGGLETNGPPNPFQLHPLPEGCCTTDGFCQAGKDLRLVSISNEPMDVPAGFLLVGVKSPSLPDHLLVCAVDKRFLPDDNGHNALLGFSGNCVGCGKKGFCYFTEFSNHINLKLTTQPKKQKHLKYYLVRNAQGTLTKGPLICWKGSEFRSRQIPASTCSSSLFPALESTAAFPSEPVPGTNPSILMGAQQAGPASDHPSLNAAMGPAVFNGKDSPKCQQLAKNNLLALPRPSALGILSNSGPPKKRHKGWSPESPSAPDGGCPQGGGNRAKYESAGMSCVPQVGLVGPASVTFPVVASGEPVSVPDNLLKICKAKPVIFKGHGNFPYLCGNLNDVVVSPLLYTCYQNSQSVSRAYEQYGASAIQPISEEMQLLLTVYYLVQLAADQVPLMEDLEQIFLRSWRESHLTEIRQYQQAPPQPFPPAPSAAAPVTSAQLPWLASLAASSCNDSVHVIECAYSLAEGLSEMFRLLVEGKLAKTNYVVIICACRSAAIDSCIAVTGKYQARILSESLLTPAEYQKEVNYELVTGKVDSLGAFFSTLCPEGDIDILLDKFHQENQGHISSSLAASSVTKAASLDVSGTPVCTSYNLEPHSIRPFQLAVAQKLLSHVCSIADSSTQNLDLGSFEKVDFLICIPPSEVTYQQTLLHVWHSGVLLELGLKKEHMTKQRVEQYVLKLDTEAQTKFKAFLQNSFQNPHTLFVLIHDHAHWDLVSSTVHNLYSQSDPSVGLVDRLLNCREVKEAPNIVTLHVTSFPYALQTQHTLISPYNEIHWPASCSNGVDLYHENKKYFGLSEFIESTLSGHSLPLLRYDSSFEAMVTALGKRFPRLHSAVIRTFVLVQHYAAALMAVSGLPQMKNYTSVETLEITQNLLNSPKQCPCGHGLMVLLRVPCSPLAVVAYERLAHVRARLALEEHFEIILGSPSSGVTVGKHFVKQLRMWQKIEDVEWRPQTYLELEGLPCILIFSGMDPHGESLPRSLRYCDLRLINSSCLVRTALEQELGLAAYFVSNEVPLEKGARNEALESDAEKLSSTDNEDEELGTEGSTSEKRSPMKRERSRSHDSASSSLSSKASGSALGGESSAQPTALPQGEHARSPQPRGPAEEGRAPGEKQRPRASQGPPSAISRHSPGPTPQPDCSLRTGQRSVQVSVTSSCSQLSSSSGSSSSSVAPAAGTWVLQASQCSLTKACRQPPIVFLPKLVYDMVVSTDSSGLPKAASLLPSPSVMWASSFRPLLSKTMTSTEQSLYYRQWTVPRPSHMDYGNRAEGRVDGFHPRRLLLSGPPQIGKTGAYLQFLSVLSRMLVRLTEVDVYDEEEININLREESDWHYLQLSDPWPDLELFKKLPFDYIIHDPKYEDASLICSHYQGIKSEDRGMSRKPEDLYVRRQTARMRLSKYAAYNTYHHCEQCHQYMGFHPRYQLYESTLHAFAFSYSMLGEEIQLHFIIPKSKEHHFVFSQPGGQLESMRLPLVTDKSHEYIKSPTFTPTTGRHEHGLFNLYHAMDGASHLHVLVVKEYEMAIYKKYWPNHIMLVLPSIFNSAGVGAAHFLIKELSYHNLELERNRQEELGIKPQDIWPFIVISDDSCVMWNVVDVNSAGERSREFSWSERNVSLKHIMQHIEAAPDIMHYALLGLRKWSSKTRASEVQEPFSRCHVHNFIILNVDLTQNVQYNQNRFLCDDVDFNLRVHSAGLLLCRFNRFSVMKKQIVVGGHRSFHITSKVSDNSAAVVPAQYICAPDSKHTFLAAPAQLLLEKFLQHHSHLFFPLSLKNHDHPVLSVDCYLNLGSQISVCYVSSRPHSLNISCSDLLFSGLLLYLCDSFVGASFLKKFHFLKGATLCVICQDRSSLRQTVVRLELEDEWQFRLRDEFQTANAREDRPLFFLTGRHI
# UniProt P51532: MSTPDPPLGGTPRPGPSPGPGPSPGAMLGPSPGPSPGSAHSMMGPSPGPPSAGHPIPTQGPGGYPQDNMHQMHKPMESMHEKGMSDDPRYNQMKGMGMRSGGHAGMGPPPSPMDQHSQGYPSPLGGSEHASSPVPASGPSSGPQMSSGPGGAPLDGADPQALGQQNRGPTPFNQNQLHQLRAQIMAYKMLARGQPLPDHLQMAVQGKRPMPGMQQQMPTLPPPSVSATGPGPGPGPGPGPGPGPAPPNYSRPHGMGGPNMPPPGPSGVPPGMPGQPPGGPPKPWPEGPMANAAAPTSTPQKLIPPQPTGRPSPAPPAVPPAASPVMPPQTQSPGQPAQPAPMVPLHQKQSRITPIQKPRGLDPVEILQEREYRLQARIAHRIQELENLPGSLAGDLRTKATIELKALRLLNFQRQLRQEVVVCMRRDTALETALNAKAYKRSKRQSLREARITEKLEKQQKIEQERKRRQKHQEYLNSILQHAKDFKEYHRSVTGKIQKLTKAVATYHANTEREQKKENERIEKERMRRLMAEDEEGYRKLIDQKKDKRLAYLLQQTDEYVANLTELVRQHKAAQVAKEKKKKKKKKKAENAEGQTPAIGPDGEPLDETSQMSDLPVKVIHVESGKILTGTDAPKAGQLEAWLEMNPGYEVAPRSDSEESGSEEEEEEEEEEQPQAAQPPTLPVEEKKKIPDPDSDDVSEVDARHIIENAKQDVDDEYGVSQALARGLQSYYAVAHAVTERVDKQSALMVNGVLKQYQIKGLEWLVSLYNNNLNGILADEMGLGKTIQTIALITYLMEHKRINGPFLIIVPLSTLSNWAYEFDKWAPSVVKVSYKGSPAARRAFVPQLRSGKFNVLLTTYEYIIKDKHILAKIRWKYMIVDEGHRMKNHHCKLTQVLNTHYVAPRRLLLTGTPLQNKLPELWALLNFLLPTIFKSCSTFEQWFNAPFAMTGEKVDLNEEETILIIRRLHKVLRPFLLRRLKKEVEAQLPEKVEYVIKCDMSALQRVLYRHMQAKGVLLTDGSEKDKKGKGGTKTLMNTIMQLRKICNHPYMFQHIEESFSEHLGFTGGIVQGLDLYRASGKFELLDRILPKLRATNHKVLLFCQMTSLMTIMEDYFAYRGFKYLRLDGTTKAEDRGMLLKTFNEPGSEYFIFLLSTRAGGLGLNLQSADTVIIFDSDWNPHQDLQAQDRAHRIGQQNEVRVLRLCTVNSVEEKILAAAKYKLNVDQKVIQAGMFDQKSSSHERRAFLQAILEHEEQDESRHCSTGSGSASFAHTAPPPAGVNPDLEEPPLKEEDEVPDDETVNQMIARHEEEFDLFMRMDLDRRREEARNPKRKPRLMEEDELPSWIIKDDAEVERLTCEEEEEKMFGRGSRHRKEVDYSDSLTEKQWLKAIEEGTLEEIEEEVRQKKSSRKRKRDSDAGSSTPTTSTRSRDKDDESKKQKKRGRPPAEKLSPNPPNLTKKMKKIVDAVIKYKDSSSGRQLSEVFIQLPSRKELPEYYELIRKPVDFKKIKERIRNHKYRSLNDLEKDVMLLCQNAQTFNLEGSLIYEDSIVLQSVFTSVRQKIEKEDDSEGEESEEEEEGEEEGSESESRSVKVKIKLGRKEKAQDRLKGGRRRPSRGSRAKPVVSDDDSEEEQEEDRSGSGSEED
# UniProt Q969G3: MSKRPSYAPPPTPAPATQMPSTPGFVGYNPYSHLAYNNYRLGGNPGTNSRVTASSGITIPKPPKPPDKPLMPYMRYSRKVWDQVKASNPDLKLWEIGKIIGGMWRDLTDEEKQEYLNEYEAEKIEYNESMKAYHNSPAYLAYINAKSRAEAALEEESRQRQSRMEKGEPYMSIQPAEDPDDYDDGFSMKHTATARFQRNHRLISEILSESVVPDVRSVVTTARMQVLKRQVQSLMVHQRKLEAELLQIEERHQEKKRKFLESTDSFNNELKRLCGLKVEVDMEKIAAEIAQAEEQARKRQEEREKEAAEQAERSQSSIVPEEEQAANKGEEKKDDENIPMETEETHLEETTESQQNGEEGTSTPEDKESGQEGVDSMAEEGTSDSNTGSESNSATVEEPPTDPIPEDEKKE
# No constants are given. Whether binding was seen depends on the method and setting. Binding seen in cells or lysates may run through a third protein. A yes stands for co-enrichment or nearness to the bait. Other partners may have been found.
# Assays:
# [1] = target: Estrogen Receptor alpha (ERα) (human (endogenous in MCF7, human PDX tumours and human breast tumours)) (UniProt P03372); test: affinity purification with mass spectrometry; qPLEX-RIME: endogenous ERα precipitated (sc-543, Protein A Dynabeads) from asynchronous MCF7 cells, single crosslinking with 1% FA, sonicated nuclei; TMT-10plex, MultiNotch MS3; five replicates against matched IgG controls
# [2] = target: Estrogen Receptor alpha (ERα) (human (endogenous in MCF7, human PDX tumours and human breast tumours)) (UniProt P03372); test: affinity purification with mass spectrometry; qPLEX-RIME: endogenous ERα precipitated from cryosections (30 µm) of three ER positive human PDX tumours (HCI-003, HCI-005, HCI-006), double crosslinking, against matched IgG pull-downs
# [3] = target: Estrogen Receptor alpha (ERα) (human (endogenous in MCF7, human PDX tumours and human breast tumours)) (UniProt P03372); test: affinity purification with mass spectrometry; qPLEX-RIME: endogenous ERα precipitated from cryosections of five human breast cancer tumours (ERα positive, PR positive, Her2 negative), double crosslinking, against matched IgG pull-downs
# [4] = target: Estrogen Receptor alpha (ERα) (human (endogenous in MCF7, human PDX tumours and human breast tumours)) (UniProt P03372); test: affinity purification with mass spectrometry; qPLEX-RIME: endogenous ERα precipitated from MCF7 cells treated with vehicle (ethanol, 24 h) or 100 nM OHT for 2 h, 6 h and 24 h, double crosslinking, 3 x 10plex, against IgG controls; values corrected for the amount of ERα
# [5] = target: NCOA3 (SRC-3) (human (endogenous in MCF7)) (UniProt Q9Y6Q9); test: affinity purification with mass spectrometry; qPLEX-RIME: endogenous NCOA3 precipitated (Bethyl A300-347A) from MCF7 cells, double crosslinking (DSG, FA), against IgG controls
# [6] = target: CBP (CREB-binding protein) (human (endogenous in MCF7, human PDX tumours and human breast tumours)) (UniProt Q92793); test: affinity purification with mass spectrometry; qPLEX-RIME: endogenous CBP precipitated (Diagenode C15410224) from MCF7 cells, double crosslinking (DSG, FA), against IgG controls
substance,measurement,setting,value
AP-2γ (from UniProt Q92754 1-450),binding,[1],binds
CBP (CREB-binding protein) (from UniProt Q92793 1-2442),binding,[2],binds
same,binding,[3],binds
same,binding,[1],binds
same,binding,[4],binds
CBX3 (HP1γ) (from UniProt Q13185 1-183),binding,[1],binds
EP300 (from UniProt Q09472 1-2414),binding,[5],binds
same,binding,[3],binds
same,binding,[1],binds
Estrogen Receptor alpha (ERα) (from UniProt P03372 1-595),binding,[6],binds
GATA-3 (from UniProt P23771 1-443),binding,[3],binds
same,binding,[1],binds
GREB1 (from UniProt Q4ZG55 1-1949),binding,[2],binds
same,binding,[3],binds
same,binding,[1],binds
same,binding,[4],binds
GREB1L (from UniProt Q9C091 1-1923),binding,[4],binds
HDAC2 (from UniProt Q92769 1-488),binding,[4],binds
NIPBL (from UniProt Q6KC79 1-2804),binding,[1],binds
RARα (from UniProt P10276 1-462),binding,[1],binds
SMARCA4 (BRG1) (from UniProt P51532 1-1647),binding,[5],binds
same,binding,[2],binds
same,binding,[4],binds
SMARCB1 (BAF47) (from UniProt Q12824 1-385),binding,[5],binds
same,binding,[6],binds
SMARCC2 (BAF170) (from UniProt Q8TAQ2 1-1214),binding,[5],binds
same,binding,[6],binds
same,binding,[4],binds
SMARCE1 (BAF57) (from UniProt Q969G3 1-411),binding,[5],binds
same,binding,[6],binds
same,binding,[2],binds
same,binding,[4],binds
